This test has as its target murine Elp2 (mElp2), wild type, purified alone (Mus musculus) (UniProt Q91WG4). The experiment in a line: SEC; gel filtration of purified Elp2 on S200 Increase 10/300 GL; 20 mM HEPES, 300 mM NaCl, 5 mM DTT, pH 8.0; both purified.

Drawing on publication PMC8113450, this text covers binding for one molecule.

Results are given in words; binding and its absence hold for the method and conditions named.

B1: murine Elp2 (mElp2), wild type, purified alone (protein, UniProt Q91WG4 1-831)
chain: MVSSVLEVSHVFCCPNRVRGALSWNTGPGGLLAFGTSCSVVLYDPQKKVVITNLNGHTARVNCLQWIRTEDGSPSNELVSGGSDNRVIHWELENNQVLKSVRLQGHEGPVCAVHAIYQSGPSEGEQHALIASAASDSTVRIWSKKGSEVKYLQTLSFRDGFVLSVCLAILPGTNVPVLACGDDDCRIHLYIQQDDQFQKALSLCGHEDWIRGVEWATFGRDLFLASCSQDCLIRIWRLYMKPASFETKDGSLRLKENTFTIKDGGVRTTVAVTLETVLAGHENWVNAVHWQPSFYKDGVLQQPVRLLSASMDKTMILWAPDEESGVWLEQVRVGEVGGNTLGFYDCQFGENGTMIIAHAFHGALHLWKQSTVNPRQWAPEIVISGHFDGVQDLMWDPEGEFIITTSTDQTTRLFAPWKKKDQKDRSQVTWHEIARPQIHGYNIKCLAMIDRFQFVSGADEKVLRVFSAPRNFVENFSVISRQSLSHMLCDDQDLPEGATVPALGLSNKALFQGDIASQPFEEDELISPAFGSPQVTFQPAVLNEPPTEDHLLQNTLWPEIQKLYGHGYEIVCVACNNSKTLLASACKASQKEHAAIILWSTASWKQVQSLAFHTLTVTQMTFSPDDKFLLAVSRDRTWSLWKRQDATSSEFDPFFSLFAFTNKITSVHSRIIWSCDWSPDNKYFFTGSRDKKVVVWGECKSSHNPMEHPIRPCSSILDVGSSVTAVSVCPVLNPAQRYIVAIGLESGKICIYSWNKTNQEINDWTSCVETNPSQSHSLGIRRLCWKSCSDDDDDDDDDDTEQSEEGPEWLHFASCGEDHTVKIYRVNRRAL
Regarding B1, the binding result was “no binding”.
